Data reported in article PMC13170346.
No constants are given. Whether binding was seen depends on the method and setting. Binding calls can cover weak binding; strength is not graded here.

Molecular target: PomY (Myxococcus xanthus)
Test: two-hybrid; Gal4-based yeast two-hybrid in AH109, high stringency: growth on SD/-Leu/-Trp/-His + 10 mM 3-AT agar, 30°C, 120 h, three independent clones

Row | binding | Binder
1 | binds | PomZ (enzyme, UniProt Q1DEM0 1-319) MEAPTYSSKQVAEMLGVSPKQIPEESRKDAYTPDDIWELRTTLDRFPARLGHRRQLFLNFKGGTGKTSLSTSYAWRLAELGYAVLLIDLDSQGHATKCLGYEGEDFEKTLLDVLVRKTPLAKVIQKSSLPNLDFVPSNLTMSTVDLALMPMAGREFKLRNALKDVEAQYDVVVFDAPPSFGLLNLNALMAANDLFVPVLADFLSFHGLKLLFETVQSLEEDLNHVLDHVFIVVNSFNATFKLAKEALEALQTHYPEFLLPTIIRQCTKFAQASSEGRPVFVADPSSKGANDIQAMIDNILPRLVAAAAVAQTKGTQQAG
2 | no binding | PomZ^K268E (enzyme, UniProt Q1DEM0 1-319) MEAPTYSSKQVAEMLGVSPKQIPEESRKDAYTPDDIWELRTTLDRFPARLGHRRQLFLNFKGGTGKTSLSTSYAWRLAELGYAVLLIDLDSQGHATKCLGYEGEDFEKTLLDVLVRKTPLAKVIQKSSLPNLDFVPSNLTMSTVDLALMPMAGREFKLRNALKDVEAQYDVVVFDAPPSFGLLNLNALMAANDLFVPVLADFLSFHGLKLLFETVQSLEEDLNHVLDHVFIVVNSFNATFKLAKEALEALQTHYPEFLLPTIIRQCTEFAQASSEGRPVFVADPSSKGANDIQAMIDNILPRLVAAAAVAQTKGTQQAG
3 | binds | PomZ^D90A (enzyme, UniProt Q1DEM0 1-319) MEAPTYSSKQVAEMLGVSPKQIPEESRKDAYTPDDIWELRTTLDRFPARLGHRRQLFLNFKGGTGKTSLSTSYAWRLAELGYAVLLIDLASQGHATKCLGYEGEDFEKTLLDVLVRKTPLAKVIQKSSLPNLDFVPSNLTMSTVDLALMPMAGREFKLRNALKDVEAQYDVVVFDAPPSFGLLNLNALMAANDLFVPVLADFLSFHGLKLLFETVQSLEEDLNHVLDHVFIVVNSFNATFKLAKEALEALQTHYPEFLLPTIIRQCTKFAQASSEGRPVFVADPSSKGANDIQAMIDNILPRLVAAAAVAQTKGTQQAG
4 | no binding | PomZ^G62V (enzyme, UniProt Q1DEM0 1-319) MEAPTYSSKQVAEMLGVSPKQIPEESRKDAYTPDDIWELRTTLDRFPARLGHRRQLFLNFKVGTGKTSLSTSYAWRLAELGYAVLLIDLDSQGHATKCLGYEGEDFEKTLLDVLVRKTPLAKVIQKSSLPNLDFVPSNLTMSTVDLALMPMAGREFKLRNALKDVEAQYDVVVFDAPPSFGLLNLNALMAANDLFVPVLADFLSFHGLKLLFETVQSLEEDLNHVLDHVFIVVNSFNATFKLAKEALEALQTHYPEFLLPTIIRQCTKFAQASSEGRPVFVADPSSKGANDIQAMIDNILPRLVAAAAVAQTKGTQQAG
